In the experiment the test system is OVCAR8. Kind of experiment: cell count relative to DMSO vehicle (fold change); higher = more surviving senescent cells (less killing). The note with it: senescence inducer: cisplatin 10 µM 48 h, then 6 d recovery (CP senescent), exposure time 24 h.

The structures appear in SMILES notation. ± gives the standard deviation of the averaged measurements. Some of the results follow. Single values are uncertain here, since repeats match poorly.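 Cells were counted by imaging DAPI-stained nuclei, and cells lacking phalloidin-stained cytoplasm were excluded as dead. Each well's count was divided by the median count of the vehicle wells on the same plate, and values were averaged over two replicate plates.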

Regarding `Cn1c(=O)n(CCC(C)(C)O)c2cc(Nc3nc(Cl)ncc3Cl)ccc21`, the cell count came to 1.35 ± 0.16 (compound dose 1 µM) and 0.813 ± 0.38 (compound dose 5 µM).
For `CCCCC(=O)N(Cc1ccc(-c2ccccc2-c2nn[nH]n2)cc1)[C@H](C(=O)O)C(C)C.CCOC(=O)[C@H](C)C[C@@H](Cc1ccc(-c2ccccc2)cc1)NC(=O)CCC(=O)O` [Sacubitril/Valsartan], in that order: 0.833 ± 0.052 and 0.999 ± 0.21.
For `CC(C)=CC[C@H](O)C1=CC(=O)c2c(O)ccc(O)c2C1=O` [(-)-Alkannin], in that order: 0.968 ± 0.054 and 0.932 ± 0.15.
The matching figures for `CCNC(=O)C#Cc1ccc2c(C(=Nc3ccc(CN(C)C)cc3)c3ccccc3)c(O)[nH]c2c1`: 1.25 ± 0.02 and 0.436 ± 0.02.
Take `C=C1C(=O)O[C@@H]2C[C@@]3(C)CCC[C@H](C)C3=C[C@H]12` [Alantolactone]: the cell count (compound dose 1 µM) turned out to be 1.02 ± 0.034 and the cell count (compound dose 5 µM) was found to be 0.405 ± 0.2.
The matching figures for `O[C@H]1[C@H]2c3cc4c(cc3CN3CCC(=C[C@@H]1O)[C@H]23)OCO4` [Lycorine]: 0.806 ± 0.11 and 0.549 ± 0.24.
The matching figures for `CCc1cccc2c1N(C)Cc1cc3c(cc1-2)OCO3`: 0.938 ± 0.05 and 0.7535 ± 0.0021.
Consider `CCOc1cc(C(C)(C)C)ccc1C1=N[C@@](C)(c2ccc(Cl)cc2)[C@@](C)(c2ccc(Cl)cc2)N1C(=O)N1CCN(CC(=O)N2CCOCC2)CC1` [p53 and MDM2 proteins-interaction-inhibitor (chiral)], for which the cell count by setting is: (compound dose 1 µM) 1.22 ± 0.16; (compound dose 5 µM) 1.23 ± 0.19.
For `Cn1c(=O)cc(N2CCC[C@@H](N)C2)n(Cc2ccccc2C#N)c1=O` [Alogliptin (Benzoate)], in that order: 1.14 ± 0.095 and 0.952 ± 0.041.
Turning to `O=c1c2cc(O)c(O)cc2oc2cc(O)c([C@@H]3O[C@H](CO)[C@@H](O)[C@H](O)[C@H]3O)c(O)c12` [Mangiferin], the cell count reads like this: (compound dose 1 µM) 1.35 ± 0.1; (compound dose 5 µM) 1.13 ± 0.047.
Regarding `N[C@@H](CC(=O)N1CCN(C(c2ccc(F)cc2)c2ccc(F)cc2)CC1)C(=O)N1Cc2ccccc2C1`, the cell count is 1.12 ± 0.11 (compound dose 1 µM) and 1.22 ± 0.03 (compound dose 5 µM).
Turning to `C[C@@H]1CN(C(=O)Nc2ccc(-c3nc(N4CCOCC4)c4cnn(CCCCCCC(=O)NO)c4n3)cc2)CCO1` [HDACs/mTOR Inhibitor 1], the cell count (compound dose 1 µM) amounted to 0.417 ± 0.026 and the cell count (compound dose 5 µM) amounted to 0.3835 ± 0.0021.
For `CNC(=O)Nc1ccc(-c2nc(N3CC4CCC(C3)O4)c3cnn(C4CCC5(CC4)OCCO5)c3n2)cc1`, in that order: 0.673 ± 0.046 and 0.373 ± 0.079.
`C[C@H](NP(=O)(OC[C@H]1O[C@@H](n2cc(F)c(=O)[nH]c2=O)C[C@@H]1O)Oc1cccc2ccccc12)C(=O)OCc1ccccc1` (some centres not stated) [Fosifloxuridine nafalbenamide]: the cell count runs as follows: (compound dose 1 µM) 1.11 ± 0.14; (compound dose 5 µM) 1.11 ± 0.037.
With `O=NN(CCCl)C(=O)NC1CCCCC1`, the cell count is, setting by setting: (compound dose 1 µM) 1.07 ± 0.12; (compound dose 5 µM) 0.828 ± 0.094.
For `COc1ccc([C@H]2CNC(=O)C2)cc1OC1CCCC1` [(S)-(+)-Rolipram], in that order: 1.13 ± 0.15 and 0.942 ± 0.044.
`O=C1CC[C@H](NC(=O)Cc2ccccc2)C(=O)N1` [Antineoplaston A10]: the cell count by setting is: (compound dose 1 µM) 0.803 ± 0.064; (compound dose 5 µM) 0.862 ± 0.088.
The matching figures for `O=C1NCCSc2c1sc1ccc(O)cc21`: 0.841 ± 0.049 and 0.794 ± 0.26.
`COc1ccccc1-c1cc(Nc2cccc(CS(N)(=O)=O)c2)ncn1`: the cell count runs as follows: (compound dose 1 µM) 0.708 ± 0.04; (compound dose 5 µM) 1.15 ± 0.065.
Turning to `Cc1cc(C)cc(NC(N)=Nc2ccccc2C(F)(F)F)c1`, the cell count runs as follows: (compound dose 1 µM) 0.877 ± 0.088; (compound dose 5 µM) 0.863 ± 0.083.
The matching figures for `Cc1nc(N2CCN(C)CC2)nc2c1Nc1ccccc1S2`: 1.35 ± 0.077 and 1.39 ± 0.22.
For `COc1cc(/C=C/C(=O)N2CCC=CC2=O)cc(OC)c1OC`, in that order: 1.101 ± 0.0071 and 0.663 ± 0.15.
For `FC(F)(F)c1ccc(CNc2ccc(Cc3c[nH]c4ncc(Cl)cc34)cn2)cn1` [Pexidartinib], in that order: 1.08 ± 0.081 and 1.08 ± 0.23.
Regarding `O=C(CCCCCCC(=O)NO)NO` [Suberoyl bis-hydroxamic acid], the cell count by setting is: (compound dose 1 µM) 1.06 ± 0.033; (compound dose 5 µM) 1.01 ± 0.15.
For `OCCNC1CCCc2c1[nH]c1ccc(-c3ccccc3)cc21` (configuration not stated), in that order: 0.874 ± 0.046 and 0.772 ± 0.088.
In the case of `CC(C)[C@H](CO)Nc1nc(Nc2cccc(Cl)c2)c2ncn(C(C)C)c2n1` [Purvalanol A], the cell count by setting is: (compound dose 1 µM) 0.832 ± 0.12; (compound dose 5 µM) 0.945 ± 0.15.
For `COc1ccc(N(C)c2nc(C)nc3ccccc23)cc1` [Verubulin], the cell count by setting is: (compound dose 1 µM) 0.755 ± 0.05; (compound dose 5 µM) 0.683 ± 0.16.
As for `CNC(=O)c1ccc(-c2cnc3ncc(Cc4ccc5ncccc5c4)n3n2)cc1F` [Capmatinib], the cell count reads like this: (compound dose 1 µM) 1.29 ± 0.12; (compound dose 5 µM) 1.13 ± 0.24.
In the case of `CCOC(=O)[C@H](CCc1ccccc1)N[C@@H](C)C(=O)N1[C@H](C(=O)O)C[C@@H]2CCC[C@@H]21` [Ramipril], the cell count turned out to be 1.03 ± 0.21 (compound dose 1 µM) and 0.718 ± 0.43 (compound dose 5 µM).
As for `O=c1c(O)c(-c2ccc(O)c(O)c2)oc2cc(O)ccc12`, the cell count runs as follows: (compound dose 1 µM) 0.911 ± 0.024; (compound dose 5 µM) 0.918 ± 0.73.
For `O=C(COc1ccc(Cl)cc1)NC1CCC(NC(=O)COc2ccc(Cl)cc2)CC1` (stereo not drawn) [ISRIB (trans-isomer)], in that order: 1.17 ± 0.28 and 1.36 ± 0.058.
`O=C1C2C3C=CC(C4CC34)C2C(=O)N1c1ccc(Cc2ccncc2)cc1` (configuration not stated): the cell count by setting is: (compound dose 1 µM) 0.96 ± 0.0028; (compound dose 5 µM) 0.791 ± 0.36.
For `COc1cc2c(cc1OC(C)C)[C@H](c1ccc(Cl)cc1)N(c1ccc(N(C)C[C@H]3CC[C@H](N4CCN(C)C(=O)C4)CC3)cc1)C(=O)C2`, in that order: 1.31 ± 0.37 and 0.926 ± 0.096.
`CCc1cc2c(=O)c(-c3nc4ccccc4s3)coc2c(CN2CCCCC2)c1O`: the cell count worked out at 1.06 ± 0.28 (compound dose 1 µM) and 1.09 ± 0.23 (compound dose 5 µM).
For `Cc1cc(C2CCCCC2)n(O)c(=O)c1`, the cell count was determined as 1.05 ± 0.075 (compound dose 1 µM) and 1.28 ± 0.26 (compound dose 5 µM).
With `C[C@H]1[C@H](C)CC[C@]2(C(=O)O)CC[C@]3(C)C(=CC[C@@H]4[C@@]5(C)CCC(=O)C(C)(C)[C@@H]5CC[C@]43C)[C@H]12` [Ursonic acid], the cell count is, setting by setting: (compound dose 1 µM) 1.1 ± 0.06; (compound dose 5 µM) 1.08 ± 0.27.

The record behind these values is the supplement of paper PMC12462457.
